The target in experiment [1] is T1, human NgR1 expressed in COS-7 cells (human) (UniProt Q9BZR6).
T1 sequence (looked up): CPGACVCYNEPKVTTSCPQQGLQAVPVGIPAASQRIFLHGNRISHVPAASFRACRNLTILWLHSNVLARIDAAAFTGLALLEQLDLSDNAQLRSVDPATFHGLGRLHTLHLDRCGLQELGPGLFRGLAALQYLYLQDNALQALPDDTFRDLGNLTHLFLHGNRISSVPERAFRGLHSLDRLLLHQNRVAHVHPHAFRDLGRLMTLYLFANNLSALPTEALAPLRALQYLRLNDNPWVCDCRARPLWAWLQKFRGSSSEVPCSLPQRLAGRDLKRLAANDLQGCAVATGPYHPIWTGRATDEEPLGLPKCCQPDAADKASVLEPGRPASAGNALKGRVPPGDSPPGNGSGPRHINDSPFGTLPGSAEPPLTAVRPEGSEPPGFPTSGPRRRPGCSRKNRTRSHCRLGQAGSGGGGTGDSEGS
The experiment in a line: co-immunoprecipitation from co-transfected COS-7 cells, Western blot.

By UniProt entry, the sequences of proteins in these tests, tags left out. Residues count along the entry.
UniProt Q96FE5, residues 42-620: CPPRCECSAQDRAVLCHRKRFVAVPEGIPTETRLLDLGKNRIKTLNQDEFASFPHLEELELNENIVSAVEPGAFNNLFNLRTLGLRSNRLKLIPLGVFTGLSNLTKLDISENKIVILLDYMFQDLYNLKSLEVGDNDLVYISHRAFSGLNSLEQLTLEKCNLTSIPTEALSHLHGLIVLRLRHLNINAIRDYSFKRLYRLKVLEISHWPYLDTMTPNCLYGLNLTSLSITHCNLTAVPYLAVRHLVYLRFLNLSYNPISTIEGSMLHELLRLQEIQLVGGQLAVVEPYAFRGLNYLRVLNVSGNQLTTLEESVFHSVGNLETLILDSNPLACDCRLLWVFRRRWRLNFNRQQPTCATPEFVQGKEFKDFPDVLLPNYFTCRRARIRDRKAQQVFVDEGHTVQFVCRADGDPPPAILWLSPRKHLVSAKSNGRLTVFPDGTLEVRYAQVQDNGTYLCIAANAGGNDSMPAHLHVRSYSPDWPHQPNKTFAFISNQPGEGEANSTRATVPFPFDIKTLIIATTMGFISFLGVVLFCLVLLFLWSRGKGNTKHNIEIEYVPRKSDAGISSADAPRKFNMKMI

Experiment [2] addresses human LINGO-1 expressed in COS-7 cells (human) (UniProt Q96FE5). The experiment is described as above.

These are yes or no findings as the source states them, for the method shown. Binding seen in cells or lysates may run through a third protein. Some entries that bind do so weakly or less than the wild type. Sequences can lack the tags named with a protein.

From patent US20060058223A1 come the findings set out here.

B1: Human TAJ (residue 26 to 416, in PV90 HA tag expression vector) expressed in COS-7 cells (receptor, not shown: small tags and cut ends)
chain: KVTCESGDCRQQEFRDRSGNCVPCNQCGPGMELSKECGFGYGEDAQCVACRLHRFKEDWGFQKCKPCLDCAVVNRFQKANCSATSDAICGDCLPGFYRKTKLVGFQDMECVPCGDPPPPYEPHCASKVNLVKIASTASSPRDTALAAVICSALATVLLALLILCVIYCKRQFMEKKPSWSLRSQDIQYNETELSCFDRPQLHEYAHRACCQCRRDSVQTCGPVRLLPSMCCEEACSPNPATLGCGVHSAASLQARNAGPAGEMVPTFFGSLTQSICGEFSDAWPLMQNPMGGDNISFCDSYPELTGEDIHSLNPELESSTSLDSNSSQDLVGGAVPVQSHSENFTAATDLSRYNNTLVESASTQDALTMRSQLDQESGAVIHPATQTSLQV
Take B1: the binding result in experiment [1] and in experiment [2] was “binds” in each case.
